Assay results from PMC12866766.
Results are given in words; binding and its absence hold for the method and conditions named. In cells and extracts the contact can be indirect. Some entries that bind do so weakly or less than the wild type.

By UniProt entry, the sequences of proteins in these tests, tags left out.
UniProt Q04207: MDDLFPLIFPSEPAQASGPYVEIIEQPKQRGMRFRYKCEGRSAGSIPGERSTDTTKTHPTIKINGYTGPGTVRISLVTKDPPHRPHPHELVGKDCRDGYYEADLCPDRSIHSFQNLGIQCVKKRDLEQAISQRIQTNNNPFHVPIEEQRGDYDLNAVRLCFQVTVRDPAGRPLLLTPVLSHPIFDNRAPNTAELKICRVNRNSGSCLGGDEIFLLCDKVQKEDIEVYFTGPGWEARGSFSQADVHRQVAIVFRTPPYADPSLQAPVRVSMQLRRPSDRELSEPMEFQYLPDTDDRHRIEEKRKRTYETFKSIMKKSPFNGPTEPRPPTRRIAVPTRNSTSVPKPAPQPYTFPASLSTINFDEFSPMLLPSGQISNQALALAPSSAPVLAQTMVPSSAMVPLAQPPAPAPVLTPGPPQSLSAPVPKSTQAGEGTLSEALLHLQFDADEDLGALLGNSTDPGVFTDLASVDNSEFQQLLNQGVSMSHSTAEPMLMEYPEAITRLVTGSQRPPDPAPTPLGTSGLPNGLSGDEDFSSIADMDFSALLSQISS
UniProt P28033: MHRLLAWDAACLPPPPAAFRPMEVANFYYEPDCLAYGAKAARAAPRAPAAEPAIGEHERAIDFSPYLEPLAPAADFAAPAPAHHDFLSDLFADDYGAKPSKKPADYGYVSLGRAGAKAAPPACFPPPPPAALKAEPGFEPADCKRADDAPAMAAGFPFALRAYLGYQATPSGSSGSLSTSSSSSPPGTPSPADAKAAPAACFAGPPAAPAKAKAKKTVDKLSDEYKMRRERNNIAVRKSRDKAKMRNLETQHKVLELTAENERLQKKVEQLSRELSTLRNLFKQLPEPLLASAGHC

T1: CD74 (invariant chain, Ii) (mouse (endogenous in mBMDMs)) (UniProt P04441)
T1 sequence: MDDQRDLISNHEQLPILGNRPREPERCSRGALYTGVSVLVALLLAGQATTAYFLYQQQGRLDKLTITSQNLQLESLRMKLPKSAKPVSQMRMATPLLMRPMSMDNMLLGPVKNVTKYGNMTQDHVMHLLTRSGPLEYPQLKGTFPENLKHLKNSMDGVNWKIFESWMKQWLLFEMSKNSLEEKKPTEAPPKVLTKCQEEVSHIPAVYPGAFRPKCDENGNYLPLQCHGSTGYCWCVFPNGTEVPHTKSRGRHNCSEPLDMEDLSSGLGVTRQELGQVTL

B1: CD74 (invariant chain, Ii) (receptor, UniProt P04441 1-279)
chain: T1 sequence

Assays:
Assay in all cases: co-IP; endogenous proteins in mBMDM lysates (cells with or without stimulation), precleared, IP overnight at 4 °C with anti-CEBPB, anti-CD74, anti-P65 or control IgG, protein A agarose beads, five washes with lysis buffer, immunoblot
[1] = biological target: P65 (NF-kB pathway component p65) (mouse (endogenous in mBMDMs)) (UniProt Q04207)
[2] = biological target: T1, CD74 (invariant chain, Ii) (mouse (endogenous in mBMDMs))
[3] = biological target: CCAAT/enhancer-binding protein beta (CEBPB) (mouse (endogenous in mBMDMs)) (UniProt P28033)

binding [1] | binding [2] | binding [3] | Molecule
binds | no binding |  | CCAAT/enhancer-binding protein beta (CEBPB) (from UniProt P28033 1-296)
 |  | binds | P65 (NF-kB pathway component p65) (from UniProt Q04207 1-549)
 |  | no binding | B1
